The supplement of paper PMC12889115
Some of the results follow. Values are raw readings; no control value is given beside them.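 In the initial screen, polymyxin B was used at a concentration that permeabilizes Salmonella's outer membrane but not its inner membrane. Maximum growth was set by DMSO wells with or without polymyxin B. Since plates varied, data were ranked per plate, and compounds giving the lowest OD600 advanced as hits.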

Test system: Salmonella enterica serovar Typhimurium SL1344
Assay: bacterial growth OD600 after 18 h with compound and polymyxin B; higher = more bacterial growth (less inhibition)
Settings: 50 µM, Mueller-Hinton broth

Row | Structure (SMILES) | bacterial growth OD600 (polymyxin B 0.75 µg/mL) | bacterial growth OD600 (polymyxin B 1 µg/mL)
1 | COCc1ccc(C(=O)N2CCCC(CCc3c(F)cccc3F)C2)o1 (stereo not drawn) | 0.139 | –
2 | CSCCC(=O)NCc1cccnc1N1CCCC(O)C1 (stereo not drawn) | 0.841 | –
3 | COc1ccc(OCc2cc(C(=O)N3CCCCCC3)n[nH]2)c(Cl)c1 | 0.086 | –
4 | COCCC(=O)N1CCC(Oc2ccc(C(=O)NCc3ccc(C)s3)cc2)CC1 | – | 0.791
5 | CCN(Cc1ccncc1)C(=O)c1cc(COc2ccc3ncccc3c2)on1 | – | 0.924
6 | CN(CCc1ccccc1)C1(C(=O)N2CCC(C(N)=O)CC2)Cc2ccccc2C1 | – | 0.992
7 | O=C(Nc1cccc(N2CCC(NCCc3ccco3)CC2)c1)c1cccc(C(F)(F)F)c1 | 0.854 | –
8 | CCc1cc(C(=O)NCC2Cc3cc(-c4cc(OC)ccc4OC)cc(Cl)c3O2)n(C)n1 (stereo not drawn) | 0.309 | –
9 | Cc1oc(-c2cccc(Cl)c2)nc1CN1CCCCC1c1nccs1 (stereo not drawn) | – | 0.728
10 | COc1ccc(CN2CCN(Cc3cn(C)nc3C)CC2CCO)cc1C (stereo not drawn) | – | 0.871
11 | O=CN1CCCN([C@H]2CN(S(=O)(=O)c3ccccc3)C[C@@H]2O)CC1 | – | 0.885
12 | COC(=O)CCC(=O)N1CCCC(CCc2ccccc2C(F)(F)F)C1 (stereo not drawn) | 0.006 | –
13 | CC1CN(CCC(=O)N2CC3CCCC2C3)Cc2cc(Cl)ccc2O1 (stereo not drawn) | 0.184 | –
14 | Cc1cc(CNCc2c(C(=O)N(C)CCc3ccccc3)nc3sccn23)nn1C | – | 1.03
15 | Cc1cccc(C)c1Oc1ncccc1CNC(=O)c1ccc(CN(C)C)o1 | – | 1.22
16 | CCOC(=O)C1(Cc2ccc(OC)cc2)CCN(C(=O)c2cccc(Cl)c2)CC1 | – | 0.503
17 | CN(Cc1cccc2cnccc12)C(=O)c1cn(Cc2cccc(C(F)(F)F)c2)nn1 | – | 0.784

Row | Structure (SMILES) | bacterial growth OD600 (polymyxin B 0.75 µg/mL) | bacterial growth OD600 (polymyxin B 1 µg/mL)
18 | COC(=O)C1CCCCN1C(=O)c1c(OC)cc(=O)n2c1CCN(Cc1cccs1)CC2 (stereo not drawn) | 0.787 | –
19 | COc1ccc(C(=O)N(CCO)Cc2ccccc2)cc1OC1CCN(C(C)=O)CC1 | – | 0.927
20 | CCN(CC)c1ncccc1CNC(=O)c1cnc(C)cn1 | – | 0.987
21 | COCC(=O)NC1CC(=O)N(CCc2ccc(OC)cc2)C1 (stereo not drawn) | – | 0.891
22 | O=C([C@@H]1C[C@@H]2C=C[C@H]1C2)N1CCC(C2(c3cccnc3)NC(=O)N(CCc3cccs3)C2=O)CC1 (stereo partly drawn) | 0.817 | –
23 | Cc1[nH]c2c(CNCc3ccc4nonc4c3)cc(F)cc2c1C | – | 0.792
24 | Cc1ccccc1-n1ncc(C(C)NC(=O)Cc2ccc3c(c2)OCO3)c1C (stereo not drawn) | – | 0.891
25 | C=CCC(=O)N1CCC2(CCCN(Cc3cccc(F)c3F)C2=O)C1 (stereo not drawn) | – | 0.458
26 | Cc1nc(CN2C[C@H]3OC(=O)N(CCCc4ccc(F)cc4)[C@H]3C2)c[nH]1 | 0.855 | –
27 | CC(=O)c1ccc(C(=O)N(C)CC2CCCN(CCc3ccc(F)cc3)C2)cc1 (stereo not drawn) | – | 0.753
28 | CC1CCN(CC2(O)CCCN(Cc3ccccc3F)C2=O)CC1 (stereo not drawn) | – | 0.874
29 | O=C(CCn1cncn1)N1CCCC(CCc2cccc(F)c2)C1 (stereo not drawn) | 0.81 | –
30 | Cc1nc2ccccc2n1Cc1cc(C(=O)N(C)Cc2ccon2)n[nH]1 | – | 0.895
31 | CN(Cc1ccccc1)C(=O)c1nc2ccccn2c1CNC1CCCC1 | – | 0.598
32 | CCO[C@H]1[C@H](NC(=O)CC)c2ccccc2C12CCN(Cc1ccc(OCCO)cc1)CC2 | 0.843 | –
33 | CCN1CCN(C2(C(=O)NCC(C)(C)CO)Cc3ccccc3C2)CC1 | 0.866 | –

Two of the compounds above, field by field:
COc1ccc(C(=O)N(CCO)Cc2ccccc2)cc1OC1CCN(C(C)=O)CC1
  bacterial growth OD600 (polymyxin B 1 µg/mL): 0.927
CC(=O)c1ccc(C(=O)N(C)CC2CCCN(CCc3ccc(F)cc3)C2)cc1 (stereo not drawn)
  bacterial growth OD600 (polymyxin B 1 µg/mL): 0.753
